Experimental data published in patent US9115212B2, “Bifunctional peptide” (REGENTIS INTERNATIONAL, priority 2012, dated 2015).
For at least one compound, name, drawing or mass did not settle the structure. Where a SMILES comes first, the peptide text is derived from it.

What was measured:
[1] = molecular target: T1, MMP-1 (Homo sapiens, UniProt P03956); assay: MMP-1 activity on synthetic substrate DNP-Pro-Cha-Gly-Cys (Me)-His-Ala-Lys (N-Me-Abz)-NH2; format: biochemical; details: read-out: IC50 MMP-1 activity, peptide concentration, time 15 min
T1 sequence (P03956 100-469): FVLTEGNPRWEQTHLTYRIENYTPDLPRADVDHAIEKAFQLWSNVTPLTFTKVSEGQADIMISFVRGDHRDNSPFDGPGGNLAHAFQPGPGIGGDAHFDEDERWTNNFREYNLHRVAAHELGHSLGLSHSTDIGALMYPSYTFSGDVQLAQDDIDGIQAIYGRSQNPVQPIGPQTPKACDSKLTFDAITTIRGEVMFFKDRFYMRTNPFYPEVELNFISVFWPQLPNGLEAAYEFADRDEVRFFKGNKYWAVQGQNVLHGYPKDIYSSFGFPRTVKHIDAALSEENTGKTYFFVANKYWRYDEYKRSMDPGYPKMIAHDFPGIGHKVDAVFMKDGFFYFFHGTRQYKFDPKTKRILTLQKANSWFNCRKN
Protocol: The substrate of the MMP-1 that was used to test its activity in the presence of the peptide is a synthetic substrate, DNP-Pro-Cha-Gly-Cys (Me)-His-Ala-Lys (N-Me-Abz)-NH2.
A concentration of 80 ng/μl of MMP-1 was brought in the presence of 0.4 ng/μl of synthetic substrate, in the presence or not of bifunctional peptide concentrated at 10^−3, 10^−4 and 10^−5 M for 1 h.
More particularly, FIG. 7A represents a kinetics of hydrolysis of the synthetic substrate of the MMP-1 in the presence or absence (control) of the peptide at different concentrations. The enzymatic activity of the MMP-1 was evaluated by measuring the absorbance (DO) at 465 nm every 5 minutes for a period of 35 min.
FIG. 7B is a graphical representation of the dose-effect relationship between the activity of the MMP-1 and the concentration of bifunctional peptide used at time 15 min.
The Gly-Ile-Leu (GIL) sequence was selected by the inventors for its capability of occupying the P′1, P′2 and P′3 pockets of type I collagenase, the MMP-1. The activity of the latter has been tested on the synthetic substrate, the DNP-Pro-Cha-Gly-Cys (Me)-His-Ala-Lys(N-Me-Abz)-NH2, in the presence or absence of the peptide 5 having the Gly-Ile-Leu (GIL) sequence at concentrations of 10^−5, 10^−4 and 10^−3 M.

[2] = molecular target: urokinase (Homo sapiens, UniProt P00749); assay: Urokinase activity on synthetic substrate S2444; format: biochemical; details: read-out: IC50 urokinase activity, peptide mass concentration; substrate S2444, time 15 min
Protocol: The activity of the urokinase on its synthetic substrate, D-Glu-Gly-Arg+NHPhNO2 L-Pyroglutamyl-glycyl-L-arginine-p-Nitroaniline hydrochloride (2444) has been tested in the presence and absence of the peptide according to the invention at different concentrations.
A kinetics of hydrolysis of the substrate S2444 […] by the urokinase (9.25*10^−6 mM) was carried out in the presence of the bifunctional peptide having the sequence […] (SEQ. ID NO. 1) and concentrated at 10^−3, 10^−4 and 10^−5 M for 1 hour. The control corresponds to the kinetics in the absence of peptide. The enzyme activity was evaluated by measuring the absorbance (DO) at 405 nm every 5 minutes for a period of 35 min.
FIG. 6B is a graphical representation of the dose/effect relationship between the activity of the urokinase and the concentration of the bifunctional peptide used at time 15 min. The dotted line in the figure permits to determine the IC50, i.e. the peptide concentration required to reduce the activity of the urokinase by 50%.

SMILES: CC[C@H](C)[C@H](NC(=O)CNC(=O)[C@H](CC(C)C)NC(=O)[C@H](CCCNC(=N)N)NC(=O)[C@@H](NC(=O)[C@H](CCCNC(=N)N)NC(=O)CNC(=O)[C@@H]1CCCN1C(=O)[C@H](C)NC(=O)[C@@H](NC(=O)[C@H](C)NC(=O)[C@@H](NC(=O)CNC(=O)[C@@H]1CCCN1C(=O)[C@H](C)NC(=O)[C@@H](NC(=O)[C@H](C)NC(=O)[C@@H](NC(=O)CNC(=O)[C@@H]1CCCN1C(=O)[C@H](C)NC(=O)[C@@H](NC(=O)CNC(=O)[C@@H](N)C(C)C)C(C)C)C(C)C)C(C)C)C(C)C)C(C)C)C(C)C)C(=O)N[C@@H](CC(C)C)C(=O)O [pept 1] (H-VGVAPGVAVAPGVAVAPGRVRLGIL-OH)
- IC50 [1]: 39.6 µM
- IC50 [2]: 8.28 µM
